Results are given in words; binding and its absence hold for the method and conditions named. Binding seen in cells or lysates may run through a third protein.
Biological target: HA-tagged Gαs (UniProt P63094)
Experiment: co-IP; HA-tagged Gαs and FLAG-tagged CRY1 (or Cry1Δ11) coexpressed in HEK 293T cells; about 1 mg whole cell lysate (150 mM NaCl, 1% NP-40, 2 mM EDTA, 50 mM Tris pH 8.0) with 1 μg HA or FLAG Ab overnight at 4°C, protein G agarose; immunoblot with HA or FLAG Ab

Sequences of proteins named here, by UniProt entry; tags and fusion partners are left off. A change or cut given only in a name is not applied to a line headed by its entry.
UniProt P63094: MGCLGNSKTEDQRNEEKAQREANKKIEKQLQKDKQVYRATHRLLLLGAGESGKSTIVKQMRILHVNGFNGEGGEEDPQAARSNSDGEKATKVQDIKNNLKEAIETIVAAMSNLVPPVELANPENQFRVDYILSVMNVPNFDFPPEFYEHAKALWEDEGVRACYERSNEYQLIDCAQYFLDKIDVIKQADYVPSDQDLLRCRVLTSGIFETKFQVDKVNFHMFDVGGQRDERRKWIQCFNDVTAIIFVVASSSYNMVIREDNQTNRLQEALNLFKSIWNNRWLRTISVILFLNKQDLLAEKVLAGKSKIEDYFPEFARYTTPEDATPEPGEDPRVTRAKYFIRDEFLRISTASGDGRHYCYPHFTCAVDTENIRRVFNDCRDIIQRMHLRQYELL
UniProt P97784: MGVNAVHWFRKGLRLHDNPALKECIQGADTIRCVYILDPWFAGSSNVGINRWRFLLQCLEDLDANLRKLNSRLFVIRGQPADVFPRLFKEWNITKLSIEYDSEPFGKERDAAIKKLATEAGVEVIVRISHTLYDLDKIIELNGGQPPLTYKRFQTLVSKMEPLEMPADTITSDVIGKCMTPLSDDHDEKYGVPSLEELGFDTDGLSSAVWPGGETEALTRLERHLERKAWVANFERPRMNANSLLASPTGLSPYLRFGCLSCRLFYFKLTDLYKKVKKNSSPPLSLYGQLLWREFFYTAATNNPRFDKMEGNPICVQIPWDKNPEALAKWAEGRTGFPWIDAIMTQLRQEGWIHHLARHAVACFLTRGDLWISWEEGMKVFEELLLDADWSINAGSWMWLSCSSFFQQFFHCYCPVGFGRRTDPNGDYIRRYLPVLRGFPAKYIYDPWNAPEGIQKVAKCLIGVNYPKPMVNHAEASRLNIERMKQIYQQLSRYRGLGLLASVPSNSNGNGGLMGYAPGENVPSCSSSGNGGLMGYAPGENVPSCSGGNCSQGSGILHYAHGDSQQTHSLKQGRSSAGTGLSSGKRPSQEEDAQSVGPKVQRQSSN

## Cry1Δ11 (from UniProt P97784)
  binding: no binding
